# Primary screen of a compound library

Protein sequences, listed by entry. Tags and fused reporters are not part of them. Residues count along the entry.
UniProt Q8IDJ8, 1-583: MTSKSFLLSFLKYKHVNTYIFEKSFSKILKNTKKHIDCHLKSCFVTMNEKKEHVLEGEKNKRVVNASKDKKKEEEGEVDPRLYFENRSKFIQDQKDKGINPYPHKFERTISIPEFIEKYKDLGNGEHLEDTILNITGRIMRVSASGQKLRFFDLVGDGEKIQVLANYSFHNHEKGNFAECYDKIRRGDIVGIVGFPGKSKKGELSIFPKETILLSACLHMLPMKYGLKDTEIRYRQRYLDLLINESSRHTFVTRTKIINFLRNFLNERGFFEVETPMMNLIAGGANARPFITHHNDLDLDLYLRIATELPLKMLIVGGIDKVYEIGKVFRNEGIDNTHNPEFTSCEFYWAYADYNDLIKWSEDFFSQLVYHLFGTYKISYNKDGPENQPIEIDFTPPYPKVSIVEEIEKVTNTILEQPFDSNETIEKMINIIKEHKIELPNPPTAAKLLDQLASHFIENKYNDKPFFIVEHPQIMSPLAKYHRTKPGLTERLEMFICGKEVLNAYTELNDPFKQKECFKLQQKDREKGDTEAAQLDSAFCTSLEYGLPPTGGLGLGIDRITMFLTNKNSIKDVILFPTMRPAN
UniProt A4I591, 1-473: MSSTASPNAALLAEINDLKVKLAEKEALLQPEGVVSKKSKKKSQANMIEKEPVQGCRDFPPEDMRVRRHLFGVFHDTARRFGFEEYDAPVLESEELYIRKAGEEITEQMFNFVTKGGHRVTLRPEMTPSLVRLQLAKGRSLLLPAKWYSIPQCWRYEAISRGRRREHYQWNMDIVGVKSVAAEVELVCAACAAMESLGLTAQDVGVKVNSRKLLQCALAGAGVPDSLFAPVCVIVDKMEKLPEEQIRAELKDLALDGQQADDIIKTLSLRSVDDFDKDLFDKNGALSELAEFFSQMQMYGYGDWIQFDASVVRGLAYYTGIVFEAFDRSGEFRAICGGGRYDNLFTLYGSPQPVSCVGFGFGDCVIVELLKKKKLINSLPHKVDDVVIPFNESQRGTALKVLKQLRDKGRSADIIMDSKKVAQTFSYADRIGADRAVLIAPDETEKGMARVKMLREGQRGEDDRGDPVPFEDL
UniProt Q4DA54, 1-478: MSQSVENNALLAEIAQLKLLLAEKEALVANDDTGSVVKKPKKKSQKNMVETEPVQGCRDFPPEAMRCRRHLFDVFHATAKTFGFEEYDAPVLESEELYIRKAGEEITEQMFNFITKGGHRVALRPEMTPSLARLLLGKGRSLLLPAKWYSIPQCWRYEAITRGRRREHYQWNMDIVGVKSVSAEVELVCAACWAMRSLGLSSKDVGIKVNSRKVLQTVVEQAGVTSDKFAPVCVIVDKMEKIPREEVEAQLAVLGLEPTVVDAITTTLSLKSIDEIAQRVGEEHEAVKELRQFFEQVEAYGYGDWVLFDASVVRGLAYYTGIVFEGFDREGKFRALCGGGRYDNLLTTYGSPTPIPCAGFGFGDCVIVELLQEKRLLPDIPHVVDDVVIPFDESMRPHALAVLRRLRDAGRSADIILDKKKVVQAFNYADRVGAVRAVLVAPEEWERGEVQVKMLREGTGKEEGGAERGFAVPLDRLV
UniProt P9WPC5, whole entry: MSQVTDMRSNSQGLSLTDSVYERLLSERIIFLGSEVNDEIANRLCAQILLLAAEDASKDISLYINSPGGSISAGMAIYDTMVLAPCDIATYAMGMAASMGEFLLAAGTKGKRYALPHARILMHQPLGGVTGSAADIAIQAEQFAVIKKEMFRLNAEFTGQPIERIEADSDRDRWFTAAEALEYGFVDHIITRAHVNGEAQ
UniProt P9WPC3, whole entry partner: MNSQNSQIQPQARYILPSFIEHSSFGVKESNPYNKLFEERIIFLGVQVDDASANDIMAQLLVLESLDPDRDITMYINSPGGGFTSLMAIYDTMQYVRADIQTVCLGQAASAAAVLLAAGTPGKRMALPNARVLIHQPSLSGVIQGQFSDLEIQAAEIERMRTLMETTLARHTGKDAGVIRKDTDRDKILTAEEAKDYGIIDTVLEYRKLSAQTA

The values are deposited in ChEMBL (CHEMBL3988442, “University of Dundee, Small-Polar-MMV Screening Library” (2021)).

Each number is a percent effect as filed.
The record does not define 0% and 100%; most values in the screen are far below 50% and negative numbers occur (in some assays of this library far below -100).
This is an unselected part of the compounds tested.
Two or more numbers in one place are separate tests of the same structure; such repeats can differ widely.
A dash means the value is not listed here; it may have been measured.

PfKRS1: 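Lysine-tRNA ligase, Plasmodium falciparum 3D7 (UniProt Q8IDJ8). Enzyme assay of the cytosolic lysyl-tRNA synthetase in 384-well plates, read by luminescence. Compounds at 30 µM. Direction is inferred from only a few compounds that gave an IC50; most scored high, so higher reads as stronger inhibition. About 69,000 compounds were tested under these conditions; 0.071% (about 49) showed 50% or more at least once.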
LiHisRS: 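Histidine-tRNA ligase, Leishmania infantum (UniProt A4I591). Enzyme assay of histidyl-tRNA synthetase; the read-out is not stated. Concentration: 30 µM. Direction is inferred from retests: higher values go with stronger inhibition. The assay is labelled LdHisRS but filed under L. infantum. Of about 69,000 compounds tested this way, about 410 (0.6%) reached 50% or more in at least one test.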
TcHisRS: 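Histidine-tRNA ligase, Trypanosoma cruzi CL Brener (UniProt Q4DA54). Enzyme assay of histidyl-tRNA synthetase; the read-out is not stated. Concentration: 30 µM. The record gives no direction; compounds that gave an IC50 in retests scored well above the rest, so higher reads as stronger inhibition. About 69,000 compounds were tested under these conditions; 0.045% (about 31) showed 50% or more at least once.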
Leishmania in macrophages: 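Cell assay of Leishmania donovani living inside macrophages; the read-out is not stated. Compounds at 30 µM. The record gives no direction; compounds that gave an IC50 in retests scored well above the rest, so higher reads as stronger inhibition. About 69,000 compounds were tested under these conditions; 1.5% (about 1,000) showed 50% or more at least once.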
ClpP1P2: 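Protease assay of ClpP1P2, read by the AMC dye that it sets free. Target: ClpP1P2, Mycobacterium tuberculosis (UniProt P9WPC5 and UniProt P9WPC3). Tested at 50 µM. Higher reads as stronger inhibition, judged from the few compounds that gave an IC50. Most other retested compounds had strongly negative values. Of about 69,000 compounds tested this way, about 10 (0.015%) reached 50% or more in at least one test.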

Compound | PfKRS1 | LiHisRS | TcHisRS | Leishmania in macrophages | ClpP1P2
Cc1ccc(N2CC[C@H]3OCC[C@@]3(C(=O)NC(C)C)C2)nn1 | 7.454 | 21.15 | 3.743 | - | -0.3921
O=C(O)C(F)(F)F.O=C(O)C(F)(F)F.[H][C@@]12CN(Cc3csc(C)n3)CCO[C@]1([H])CN(Cc1nccs1)C2 | - | - | - | 12.11 | -
COCCNC(=O)Cc1cnc(-n2cccc2)s1 | 2.431 | 10 | 3.727 | -18.89 | -21.99
CCC1(C)Cc2ccccc2-c2nc(NCCCO)nc(O)c21 (centres undefined) | 7.603 | 18.42 | 3.659 | 18.17 & 26.28 | -44.3
O=C(NCC1CC1)[C@@H]1CCO[C@@H]2CCN(Cc3ccc(F)cc3)C[C@H]21 | 4.835 | 17.14 | 7.843 | - | -17.98
Cl.Cl.Cn1cc(CN2CCc3c(CNC(=O)C4CC4)cncc3C2)cn1 | - | - | - | 6.27 | -
Cc1nc(C)n(CC2CCCN(c3ncnc4[nH]ccc34)C2)n1 (centres undefined) | 3.92 | 8.108 | 3.383 | 52.77 | 2.016
CC(C)c1cc(C(=O)N2CCc3nc(C4CCCN4)ncc3C2)cs1 (centres undefined) | 3.003 | 3.158 | 5.97 | - | 1.482
Cn1c(=O)n(C)c2nc(Cl)c(CC(=O)c3ccccc3)n2c1=O | 2.837 | 20.88 | 7.921 | 21.54 | 14.04
C/N=C1\c2cc3cc(OC)ccc3n2CCN1Cc1ccccc1.O=C(O)C(F)(F)F | - | - | - | 57.81 | -
Cc1cc(C)c(CNC(=O)NCCOc2ccc3c(c2)CCC3)c(=O)[nH]1 | 0.958 | 16.8 | -2.662 | 7.048 | 4.021
CN1CCN(C(=O)c2cc3sccc3n2Cc2ccccc2Cl)CC1 | 2.466 | -3.297 | 4.124 | -1.958 | -23.75
CCC(C)(N)c1nc(C(C)C)cc(=O)[nH]1 (centres undefined) | 2.655 | 18.75 | 4.255 | - | 3.95
COc1cc(C(=O)Nc2nc(C)no2)ccc1OC1CCCC1 | 2.618 | 13.56 | 7.429 | 7.734 | -15.09
Fc1cnc(N2C[C@@H]3C[C@@H](c4nc(C5CC5)cs4)O[C@@H]3C2)nc1 | 3.784 | 7.547 | 4.444 | - | 1.835
CCN1Cc2nc(OC)c(CNC(=O)C3CCS(=O)(=O)CC3)cc2C1=O | 7.228 | 15.96 | 5.051 | 23.03 | 23.17
CC(C)Cc1nnc2sc(-c3cc(C(C)C)n[nH]3)nn12 | -0.4556 | -23.91 | -10 | 42.43 | -13.1
Cc1ccc(CN2CC[C@H]3C(=O)N(c4cccnc4)CCO[C@H]3C2)o1 | 2.665 | 16.24 | 4.813 | - | -2.798
CC(=O)N1CCCC(Cc2cncc(Br)c2)CC1 (centres undefined) | 7.739 | 13.89 | -0.5405 | 6.112 | -10.1
CN(CCO)Cc1nnc(C2CCN(C(=O)C(C)(C)C)CC2)n1C | -2.403 | 6.796 | 2.075 | 8.001 | -18.69
CCc1nccn1CC(=O)Nc1cccc(C(=O)OC)c1 | 0.04576 | 5.495 | 4.95 | -6.021 | 2.538
O=C(NCCOc1ccc2c(c1)OCO2)N1CCCC(CO)C1 (centres undefined) | -0.9267 | 7.692 | 0 | 26.31 | -13.5
COCCCNC(=O)C1CCN(CC2(O)CCC(C)CC2)CC1 (centres undefined) | 0.5905 | 17.24 | 1.571 | 16.02 | -1.487
O=C(O)C(F)(F)F.[H][C@]12CCC(=O)N(c3ccccc3)[C@@]1([H])CCN2C(=O)c1ccc(C)nc1 | - | - | - | 29.95 | -
O=C(Cn1c(=O)n(Cc2ccco2)c2ncccc21)NC1CCCCC1 | 3.192 | 30.56 | -2.703 | -3.89 | -9.67
CC(C)(C)NC(=O)C1CSCN1C(=O)CCc1ccco1 (centres undefined) | 4.054 | 14.46 | 0.5525 | -24.44 | -2.205
CC(C#N)CSc1ccccc1NCC(=O)Nc1ccccc1 (centres undefined) | 0.985 | 12.33 | 1.97 | 4.792 | 5.273
O=c1cc(Cn2cncn2)nc2n1CCCN(Cc1ccc(F)cc1)C2 | 6.676 | 7.965 | 7.2 | - | 3.488
COc1cc(CNC(=O)Nc2cc(C(F)(F)F)c[nH]c2=O)ccn1 | 1.298 | 24.8 | 1.141 | 16.82 | 6.527
Cc1ccnc(C2CN(Cc3cnn(-c4ccccc4C(=O)O)c3)C2)n1 | -0.541 | 7.194 | 0.3831 | 13.2 | -7.848
CC(C)CN1CCn2c(COCc3cccnc3)nnc2C1.O=C(O)C(F)(F)F.O=C(O)C(F)(F)F | - | - | - | 15.64 | -
Cc1nc(CN2CCN(c3cncc(Cl)n3)CC2)no1 | 3.631 | 16.33 | 12 | -1.637 | 3.861
CC(C)Nc1ncnc2c1CCN(Cc1ccoc1)CC2 | -0.3769 | 21.1 | 2.404 | -1.214 | -3.623
Cc1ccc(C(C)C(=O)N2CCCN(Cc3cscn3)CC2)cc1 (centres undefined) | 2.695 | 22.02 | 13.53 | 24.12 | -15.81

For reference, 3 entries once more:

Compound	PfKRS1	LiHisRS	TcHisRS	Leishmania in macrophages	ClpP1P2
CC(C)Cc1nnc2sc(-c3cc(C(C)C)n[nH]3)nn12	-0.4556	-23.91	-10	42.43	-13.1
Cl.Cl.Cn1cc(CN2CCc3c(CNC(=O)C4CC4)cncc3C2)cn1	-	-	-	6.27	-
O=c1cc(Cn2cncn2)nc2n1CCCN(Cc1ccc(F)cc1)C2	6.676	7.965	7.2	-	3.488